No constants are given. Whether binding was seen depends on the method and setting. In cells and extracts the contact can be indirect. Some results given as binding are weak or reduced against the parent protein; the word gives no strength.

The chains behind the UniProt entries cited, without tags or fusion partners.
UniProt O88379: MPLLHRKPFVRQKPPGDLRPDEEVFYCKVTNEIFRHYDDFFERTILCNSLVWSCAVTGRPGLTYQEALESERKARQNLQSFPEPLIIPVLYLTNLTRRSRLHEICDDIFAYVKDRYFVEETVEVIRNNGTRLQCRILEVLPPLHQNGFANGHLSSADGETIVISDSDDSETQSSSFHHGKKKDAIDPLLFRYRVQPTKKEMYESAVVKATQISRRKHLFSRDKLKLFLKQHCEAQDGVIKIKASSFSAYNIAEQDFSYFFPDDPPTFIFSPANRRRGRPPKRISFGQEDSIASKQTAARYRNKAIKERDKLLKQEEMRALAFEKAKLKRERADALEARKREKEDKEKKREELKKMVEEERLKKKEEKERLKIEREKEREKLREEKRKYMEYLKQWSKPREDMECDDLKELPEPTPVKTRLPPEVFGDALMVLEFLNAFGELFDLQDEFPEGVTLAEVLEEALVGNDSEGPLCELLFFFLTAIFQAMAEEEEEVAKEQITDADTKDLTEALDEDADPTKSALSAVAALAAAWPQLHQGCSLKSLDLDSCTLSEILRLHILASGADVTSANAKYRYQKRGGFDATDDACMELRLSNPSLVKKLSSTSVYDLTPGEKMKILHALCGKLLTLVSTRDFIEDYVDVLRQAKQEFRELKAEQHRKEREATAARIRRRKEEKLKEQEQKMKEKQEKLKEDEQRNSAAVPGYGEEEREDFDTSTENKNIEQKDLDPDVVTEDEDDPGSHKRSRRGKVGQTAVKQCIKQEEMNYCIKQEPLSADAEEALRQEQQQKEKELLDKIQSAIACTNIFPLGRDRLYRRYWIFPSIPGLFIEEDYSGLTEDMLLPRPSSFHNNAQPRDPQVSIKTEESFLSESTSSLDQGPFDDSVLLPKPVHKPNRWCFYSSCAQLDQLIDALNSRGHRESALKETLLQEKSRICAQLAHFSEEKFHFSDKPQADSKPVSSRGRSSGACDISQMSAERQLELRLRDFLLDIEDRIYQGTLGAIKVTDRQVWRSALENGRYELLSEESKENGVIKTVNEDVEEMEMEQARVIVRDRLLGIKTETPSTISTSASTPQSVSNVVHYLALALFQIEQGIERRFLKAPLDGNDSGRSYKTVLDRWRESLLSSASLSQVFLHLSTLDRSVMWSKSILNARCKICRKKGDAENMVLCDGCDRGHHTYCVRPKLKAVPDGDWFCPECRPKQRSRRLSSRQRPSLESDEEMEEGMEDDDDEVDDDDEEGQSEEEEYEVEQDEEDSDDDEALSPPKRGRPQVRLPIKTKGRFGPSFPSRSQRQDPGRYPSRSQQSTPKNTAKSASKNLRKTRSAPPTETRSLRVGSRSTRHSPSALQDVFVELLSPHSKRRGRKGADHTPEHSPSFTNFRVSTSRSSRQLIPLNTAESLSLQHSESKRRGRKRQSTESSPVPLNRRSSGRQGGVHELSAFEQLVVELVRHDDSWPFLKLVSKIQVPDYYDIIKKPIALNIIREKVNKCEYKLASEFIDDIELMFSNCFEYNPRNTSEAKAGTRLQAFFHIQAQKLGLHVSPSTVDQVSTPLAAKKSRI
UniProt Q91ZW3: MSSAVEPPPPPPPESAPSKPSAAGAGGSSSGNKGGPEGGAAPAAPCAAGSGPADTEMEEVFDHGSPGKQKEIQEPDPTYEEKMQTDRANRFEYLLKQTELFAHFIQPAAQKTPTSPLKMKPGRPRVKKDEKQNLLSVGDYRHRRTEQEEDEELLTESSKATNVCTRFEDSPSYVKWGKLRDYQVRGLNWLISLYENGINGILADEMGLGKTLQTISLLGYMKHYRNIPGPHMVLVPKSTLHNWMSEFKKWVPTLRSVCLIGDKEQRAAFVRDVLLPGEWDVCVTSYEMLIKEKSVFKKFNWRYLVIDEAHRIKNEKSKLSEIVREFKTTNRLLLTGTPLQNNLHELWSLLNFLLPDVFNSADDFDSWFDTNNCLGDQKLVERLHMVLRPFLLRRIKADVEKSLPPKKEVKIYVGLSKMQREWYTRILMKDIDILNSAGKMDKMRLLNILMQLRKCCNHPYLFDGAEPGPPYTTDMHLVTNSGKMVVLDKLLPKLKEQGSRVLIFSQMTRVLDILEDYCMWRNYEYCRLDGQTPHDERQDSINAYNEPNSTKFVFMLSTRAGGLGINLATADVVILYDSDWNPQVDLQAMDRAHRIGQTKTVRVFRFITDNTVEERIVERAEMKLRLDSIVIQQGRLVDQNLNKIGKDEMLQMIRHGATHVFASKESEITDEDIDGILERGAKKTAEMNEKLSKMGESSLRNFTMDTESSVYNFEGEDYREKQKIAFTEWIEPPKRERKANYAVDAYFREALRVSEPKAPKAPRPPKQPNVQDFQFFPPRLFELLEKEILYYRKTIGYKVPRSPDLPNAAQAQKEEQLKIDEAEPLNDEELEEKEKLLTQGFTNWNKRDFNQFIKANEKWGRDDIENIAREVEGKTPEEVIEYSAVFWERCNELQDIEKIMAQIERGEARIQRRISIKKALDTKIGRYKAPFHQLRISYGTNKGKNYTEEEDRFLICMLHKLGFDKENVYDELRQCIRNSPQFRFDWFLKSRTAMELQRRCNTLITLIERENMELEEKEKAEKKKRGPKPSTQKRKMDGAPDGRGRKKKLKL

Holding throughout (assay): co-IP; wild-type adult mouse whole testis lysate; hypotonic lysis, freeze/thaw, benzonase, NaCl raised to 500 mM then reduced to 150 mM; antibody overnight, protein-G beads, washed three times with PBS; immunoblot
Experiment [1] addresses BAZ1A (mouse (endogenous in testis)) (UniProt O88379).
Experiment [2] deals with T1, CHRAC17 (mouse (endogenous in testis)) (UniProt Q9JKP7).
T1 sequence: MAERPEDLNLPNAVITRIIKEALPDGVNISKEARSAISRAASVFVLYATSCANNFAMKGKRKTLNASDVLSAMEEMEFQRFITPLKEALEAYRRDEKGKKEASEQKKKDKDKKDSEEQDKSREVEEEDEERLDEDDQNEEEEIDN

The target in experiment [3] is SNF2H (mouse (endogenous in testis)) (UniProt Q91ZW3).

Turning to SNF2H (from UniProt Q91ZW3 1-1051), the binding entry in experiment [1] was “binds”.

BAZ1A (from UniProt O88379 1-1555): the binding entry in experiment [2] and in experiment [3] was “binds” in each case.

The record behind these values is paper PMC3820798.
